Reference: doi:10.1101/2024.10.26.620377 (bioRxiv, 2024)
No constants are given. Whether binding was seen depends on the method and setting. In cells and extracts the contact can be indirect. Some entries that bind do so weakly or less than the wild type.

Chains of the proteins cited; added tags and fusions are not shown. Lines headed by an entry give the natural chain unless they say otherwise; changes in a name come on top. A line that says so, or that is headed by a name, gives the form on record, which may keep a tag or linker. Residues count along the entry.
UniProt P43220, residues 24-463: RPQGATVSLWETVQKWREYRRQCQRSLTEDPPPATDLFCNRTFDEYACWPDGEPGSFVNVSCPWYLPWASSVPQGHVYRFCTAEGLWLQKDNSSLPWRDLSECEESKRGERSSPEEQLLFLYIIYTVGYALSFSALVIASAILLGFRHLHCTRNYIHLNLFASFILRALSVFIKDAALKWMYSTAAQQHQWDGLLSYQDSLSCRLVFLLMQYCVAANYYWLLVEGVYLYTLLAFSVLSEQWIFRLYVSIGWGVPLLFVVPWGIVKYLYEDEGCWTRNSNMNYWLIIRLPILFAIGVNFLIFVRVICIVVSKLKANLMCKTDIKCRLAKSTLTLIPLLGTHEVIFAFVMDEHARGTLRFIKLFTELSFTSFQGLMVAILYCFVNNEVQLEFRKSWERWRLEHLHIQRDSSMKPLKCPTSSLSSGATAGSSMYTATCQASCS
UniProt Q9Y2T5: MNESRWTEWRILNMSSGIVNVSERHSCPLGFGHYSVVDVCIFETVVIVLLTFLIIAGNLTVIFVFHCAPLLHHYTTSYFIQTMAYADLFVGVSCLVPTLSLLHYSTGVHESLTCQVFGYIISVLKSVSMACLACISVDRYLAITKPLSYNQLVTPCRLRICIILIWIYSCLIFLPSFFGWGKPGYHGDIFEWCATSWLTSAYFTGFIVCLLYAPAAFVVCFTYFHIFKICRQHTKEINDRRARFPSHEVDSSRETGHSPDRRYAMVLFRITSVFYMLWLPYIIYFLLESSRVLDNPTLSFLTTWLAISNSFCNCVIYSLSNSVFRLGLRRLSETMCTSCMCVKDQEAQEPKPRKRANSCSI
GPR52 ICL2-A mutant, receptor-RLuc8 (Q9Y2T5, form named): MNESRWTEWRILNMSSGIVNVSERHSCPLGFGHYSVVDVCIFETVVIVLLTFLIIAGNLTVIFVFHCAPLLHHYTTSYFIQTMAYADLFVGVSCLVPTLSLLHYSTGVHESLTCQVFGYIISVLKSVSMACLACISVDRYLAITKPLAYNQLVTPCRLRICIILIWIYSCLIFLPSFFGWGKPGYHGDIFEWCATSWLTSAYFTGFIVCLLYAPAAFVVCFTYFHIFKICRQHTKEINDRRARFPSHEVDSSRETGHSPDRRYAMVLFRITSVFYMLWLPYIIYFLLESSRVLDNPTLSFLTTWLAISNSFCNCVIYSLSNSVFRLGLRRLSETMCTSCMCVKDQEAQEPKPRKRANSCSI
GPR52 ICL2-D mutant, receptor-RLuc8 (Q9Y2T5, form named): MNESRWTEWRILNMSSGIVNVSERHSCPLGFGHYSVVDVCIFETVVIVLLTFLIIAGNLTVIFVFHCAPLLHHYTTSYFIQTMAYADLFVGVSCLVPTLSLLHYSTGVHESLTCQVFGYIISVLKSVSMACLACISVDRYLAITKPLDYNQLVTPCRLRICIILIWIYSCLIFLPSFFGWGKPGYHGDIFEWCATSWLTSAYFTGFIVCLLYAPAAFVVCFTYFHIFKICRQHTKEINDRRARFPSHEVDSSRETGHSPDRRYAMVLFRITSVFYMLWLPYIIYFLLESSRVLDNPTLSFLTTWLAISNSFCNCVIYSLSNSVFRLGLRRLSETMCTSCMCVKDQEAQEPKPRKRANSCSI

Legend:
Assay in all cases: FRET or BRET
[1] = target: GLP-1R, receptor-RLuc8 BRET biosensor (UniProt P43220)
[2] = target: GPR52 S332A mutant, receptor-RLuc8 (human) (UniProt Q9Y2T5)
[3] = target: GPR52 ICL2-A mutant, receptor-RLuc8 (human) (UniProt Q9Y2T5)
[4] = target: GPR52 (wild-type), receptor-RLuc8 BRET biosensor (human) (UniProt Q9Y2T5)
[5] = target: GPR52 ICL2-D mutant, receptor-RLuc8 (human) (UniProt Q9Y2T5)

| Molecule | binding [1] | binding [2] | binding [3] | binding [4] | binding [5] |
| --- | --- | --- | --- | --- | --- |
| β-arrestin1-GFP2 (from UniProt P49407 1-418) | binds | – | – | – | – |
| β-arrestin2-GFP2 (from UniProt P32121 1-409) | binds | binds | – | – | – |
| β-arrestin1-GFP2 (natural protein) MGDKGTRVFKKASPNGKLTVYLGKRDFVDHIDLVDPVDGVVLVDPEYLKERRVYVTLTCAFRYGREDLDVLGLTFRKDLFVANVQSFPPAPEDKKPLTRLQERLIKKLGEHAYPFTFEIPPNLPCSVTLQPGPEDTGKACGVDYEVKAFCAENLEEKIHKRNSVRLVIRKVQYAPERPGPQPTAETTRQFLMSDKPLHLEASLDKEIYYHGEPISVNVHVTNNTNKTVKKIKISVRQYADICLFNTAQYKCPVAMEEADDTVAPSSTFCKVYTLTPFLANNREKRGLALDGKLKHEDTNLASSTLLREGANREILGIIVSYKVKVKLVVSRGGLLGDLASSDVAVELPFTLMHPKPKEEPPHREVPENETPVDTNLIELDTNDDDIVFEDFARQRLKGMKDDKEEEEDGTGSPQLNNR | – | binds weakly | binds weakly | binds weakly | binds weakly |
